## Screening data, single-dose tests

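Growth of Mycobacterium tuberculosis over 3 days (7H9 medium with glucose and tyloxapol); the read-out is not stated. Concentration: 500 µM. The record gives no direction; compounds that gave an IC50 in retests scored well above the rest, so higher reads as more growth inhibition. Size under these conditions: about 18,000 compounds, about 1,400 of them at 50% or above in at least one test.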

Values are the deposited “Percent Effect”, in %. The controls that fix the scale are not given in the record; negative values are as filed. The compounds are a random part of those screened.

| # | Compound | percent effect |
|---|---|---|
| 1 | `COc1ccc(N2CCCN(CCC(N)=O)CC2)cc1` | 61.43 |
| 2 | `Cc1ccc(NC(=O)[C@H](C)N(C)C)cc1C` | 10.29 |
| 3 | `CC(=O)NC(C)c1nnc2ccccn12` (stereo not given) | -8.982 |
| 4 | `CCOc1ncccc1CNC(=O)c1sc(C)nc1C` | 27.72 |
| 5 | `COC(=O)CN1CCN(C(=O)N(C)C)CC1` | 6.3 |
| 6 | `O=C(NCC(F)(F)F)C1CCN(CC(F)F)CC1` | 10.49 |
| 7 | `O=C(CN1CCOCC1)NCc1ccc2sccc2c1` | 27.9 |
| 8 | `Cc1ncc(S(N)(=O)=O)cc1CN` | 1.387 |
| 9 | `Cc1ccc2[nH]c(CN)nc2c1C` | 65.31 |
| 10 | `CCC(Cn1ccnc1)NC(=O)CCn1cc(C)cn1` (stereo not given) | 3.012 |
| 11 | `CN1CCN(C(=O)C2CCC2)c2ccccc2C1` | -2.667 |
| 12 | `COC(=O)c1ccc(OCC(=O)N2CCOCC2)cc1` | 24.85 |
| 13 | `Cc1nc2ccccc2c(=O)n1-c1ccccn1` | 10.71 |
| 14 | `CCCNCCNS(=O)(=O)CCc1cccs1` | 10.6 |
| 15 | `CCN(C1CCN(c2ccccn2)CC1)S(C)(=O)=O` | 20.41 |
| 16 | `O=C(CSCC(=O)N1CCNC1=O)Nc1ccccc1` | 3.358 |
| 17 | `CC(C)C(C(=O)NCCc1nnc[nH]1)c1ccccc1` (stereo not given) | 15.36 |
| 18 | `CC(C)CC1(CNC(=O)NC2CCC(=O)NC2)CCC1` (stereo not given) | -9.162 |
| 19 | `c1ccc(CNc2cc(-n3cccn3)ncn2)cc1` | 53.49 |
| 20 | `COC(C)c1cccc(NCCCS(C)(=O)=O)c1` (stereo not given) | 23.5 |
| 21 | `Nc1cccnc1N1CCC(CO)CC1` | -3.721 |
| 22 | `O=C(NCCn1cncn1)c1cccc2c1OCCO2` | -8.896 |
| 23 | `COc1cccc(Cl)c1CN` | -13.94 |
| 24 | `COc1cccc(OC2CN(C(=O)[C@@H](N)CO)C2)c1` | 2.368 |
| 25 | `Cc1nc(CC(=O)N[C@H]2CC[C@H]2N)cs1` | 6.082 |
| 26 | `N[C@@H]1CCCc2c(F)cc(F)cc21` | 34.86 |
| 27 | `Cc1cc(NC(=O)CN2CCCC(N(C)C)C2)n(C)n1` (stereo not given) | 0.6067 |
| 28 | `COc1ncccc1NC(=O)Nc1c(C)n[nH]c1C` | -9.997 |
| 29 | `CSc1nnc(C)s1` | 41.19 |
| 30 | `CCCN(CCC)S(=O)(=O)N1CCNCC1` | 14 |
| 31 | `Cc1ccc2nc(CN3CCC[C@H]3CO)cc(O)c2c1` | -12.12 |
| 32 | `CCOCC(=O)N[C@@H]1COCC[C@@H]1OCCN(C)C` | 6.403 |
| 33 | `N#CCCNCc1ccccc1` | 46.02 |
| 34 | `Cc1nc(CCN2CCc3c(c(CO)nn3C)C2)cs1` | -8.188 |
| 35 | `COCCOCC(=O)N(C)C(C)c1ccncn1` (stereo not given) | -4.346 |
| 36 | `COc1ccc(S(N)(=O)=O)cc1-c1noc(C)n1` | -2.869 |
| 37 | `OCC1(Cc2ccccc2F)CCCNC1` (stereo not given) | 3.46 |
| 38 | `CCC[C@H]1CN(c2noc(C)n2)C[C@@H]1N` | 0.007259 |
| 39 | `CCN1CCN(c2cc(C#N)ccn2)CC1` | 24.38 |
| 40 | `CCn1cnc2ccc(C(=O)NC3CC3)cc2c1=O` | 9.49 |
| 41 | `CC(C)c1ncc(C(=O)N2CCS(=O)(=O)CC2)cn1` | 55.08 |
| 42 | `CC(C)n1cnc(S(=O)(=O)NCC2CCCCN2)c1` (stereo not given) | 23.39 |
| 43 | `Cn1ccnc1-c1nnc(NCc2ncc(Cl)n2C)o1` | -3.12 |
| 44 | `CCNC(=O)C1CCCN(c2ccncc2Cl)C1` (stereo not given) | 78.47 |
| 45 | `CCCc1ncncc1C(=O)N1C[C@H](OCC)[C@@H](O)C1` | 7.704 |
| 46 | `CCn1nc(C(=O)N2CC[C@@H](N)[C@@H](OC)C2)cc1C` | 9.653 |
| 47 | `O=C(CCN1CCCS1(=O)=O)Nc1ccccc1I` | 6.429 |
| 48 | `COC(=O)c1ccc(CCN2CCCC2C(N)=O)cc1` (stereo not given) | -5.069 |
| 49 | `CO[C@H]1CNCC1NC(=O)C1CC=CC1` (stereo not given in full) | -3.276 |
| 50 | `Cc1cccc(NC(=O)CCN2CCN(C)CC2)c1` | -5.193 |
| 51 | `NCCCc1nc(-c2ccncc2)no1` | 7.227 |
| 52 | `Cc1cncc(C(=O)NCCc2cncn2C)c1` | -5.286 |
| 53 | `NC(=O)CN1CCCC1Cc1ccc(F)cc1` (stereo not given) | 17.3 |
| 54 | `COC(=O)C1=C(C)NC(=O)/C1=C\c1ccccc1` | 32.11 |

6 of the entries, repeated:

Compound	percent effect
CCOCC(=O)N[C@@H]1COCC[C@@H]1OCCN(C)C	6.403
CC(C)c1ncc(C(=O)N2CCS(=O)(=O)CC2)cn1	55.08
COCCOCC(=O)N(C)C(C)c1ccncn1 (stereo not given)	-4.346
O=C(NCC(F)(F)F)C1CCN(CC(F)F)CC1	10.49
Cc1ncc(S(N)(=O)=O)cc1CN	1.387
O=C(NCCn1cncn1)c1cccc2c1OCCO2	-8.896

The values are deposited in ChEMBL (CHEMBL3988442, “University of Dundee, Small-Polar-MMV Screening Library” (2021)).